Reference: PubChem BioAssay AID1259405 (NCATS, 2018)

- Assay: 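Mouse-designed siRNAs used to find CHO productivity engineering targets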 (primary screen)
- Cell system: Chinese hamster CHO-K1 ovary cells with stable secreted eGFP expression
- Knock-down reagent: single siRNA against mouse genes, 0.8 pmol siRNA per well (2 µl of 400 nM stock)
- Duration: 3 days
- Read-out: 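Per-well intracellular GFP measured by laser scanning cytometry, plus viability from ATP luminescence, each relative to plate median of non-targeting control wells, in %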
- Scale: GFP, % of control: higher = more GFP per well, higher productivity; viability (ATP), % of control: higher = more viable cells (more ATP)
- Active means: 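Called active when intracellular GFP, relative to negative control, is at or above 120%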
The whole screen tested about 50,000 reagents; this is a random part of them. About 4,000 of them (8%) were called active. 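Mouse siRNA library applied to hamster cells; one well for each siRNA.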 Reagents against one gene are numbered here. No sequences are given here.

Against Mei4 #1 the deposit lists GFP, % of control 62.7; viability (ATP), % of control 71.8; inactive.
With knock-down of Mei4 #2, the record shows GFP, % of control 58.6; viability (ATP), % of control 74.1; inactive.
For Mei4 #3 the deposit lists GFP, % of control 58.7; viability (ATP), % of control 76.8; inactive.
Against Prr13 #1, the values are GFP, % of control 66.2; viability (ATP), % of control 68.6; inactive.
Prr13 #2 showed GFP, % of control 57.2; viability (ATP), % of control 75.4; inactive.
For Prr13 #3, the entry reads GFP, % of control 82.4; viability (ATP), % of control 78.7; inactive.
After knock-down of Nrm #1 the results were GFP, % of control 76.4; viability (ATP), % of control 63; inactive.
Nrm #2 showed GFP, % of control 148; viability (ATP), % of control 81.6; active.
After knock-down of Nrm #3, the record shows GFP, % of control 71.7; viability (ATP), % of control 52; inactive.

A stretch from the list above, for reference:
Mei4 #1: GFP, % of control = 62.7; viability (ATP), % of control = 71.8; Call = inactive
Mei4 #2: GFP, % of control = 58.6; viability (ATP), % of control = 74.1; Call = inactive
Mei4 #3: GFP, % of control = 58.7; viability (ATP), % of control = 76.8; Call = inactive

The results go on:
Against Prpf31 #1 the deposit lists GFP, % of control 50.8; viability (ATP), % of control 80.9; inactive.
Silencing of Prpf31 #2 came out at: GFP, % of control 64.1; viability (ATP), % of control 80.2; inactive.
With knock-down of Prpf31 #3, the record shows GFP, % of control 86; viability (ATP), % of control 67.5; inactive.
Bicd1 #1 showed GFP, % of control 52.1; viability (ATP), % of control 51.1; inactive.
Bicd1 #2 showed GFP, % of control 90.8; viability (ATP), % of control 101; inactive.
Against Bicd1 #3, the entry reads GFP, % of control 94.9; viability (ATP), % of control 93.2; inactive.
Depletion of Rims4 #1 gave: GFP, % of control 74.9; viability (ATP), % of control 67.5; inactive.
Rims4 #2 gave GFP, % of control 111; viability (ATP), % of control 76.8; inactive.
Silencing of Rims4 #3 gave: GFP, % of control 55.4; viability (ATP), % of control 54.4; inactive.
With knock-down of Ogfod1 #1 the results were GFP, % of control 89.7; viability (ATP), % of control 82.6; inactive.
After knock-down of Ogfod1 #2 the results were GFP, % of control 64.5; viability (ATP), % of control 70.7; inactive.
Ogfod1 #3 scored GFP, % of control 85.7; viability (ATP), % of control 77; inactive.
Klhl32 #1 gave GFP, % of control 67; viability (ATP), % of control 77.7; inactive.
For Klhl32 #2, the values are GFP, % of control 56.1; viability (ATP), % of control 58.2; inactive.
Silencing of Klhl32 #3 came out at: GFP, % of control 90.3; viability (ATP), % of control 67.1; inactive.
Knock-down of Bex1 #1 gave: GFP, % of control 103; viability (ATP), % of control 74.7; inactive.
For Bex1 #2, the values are GFP, % of control 53; viability (ATP), % of control 53.6; inactive.
Silencing of Bex1 #3 resulted in: GFP, % of control 69.9; viability (ATP), % of control 90.4; inactive.
